# Data: PubChem BioAssay AID493014 (National Center for Advancing Translational Sciences (NCATS), 2011)
# Among all 340,000 compounds or so, about 170 (0.05%) were called active. The shares of active, inactive and inconclusive entries below differ from those in the screen. Calls follow the shape of the dose curve; as a rule, active = well fitted inhibition curve with a large enough effect in the signal ratio, with a control signal flat (not every such curve was filed as active); inconclusive = small, poorly fitted or top-dose-only effect, or effect the other way, or a change in a side signal; inactive = flat fitted curve, though single readings scatter; the % refers to the signal ratio. Where the call is inconclusive, the potency comes from a doubtful curve fit.
# Test: qHTS Assay to Find Inhibitors of Chronic Active B-Cell Receptor Signaling;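 as to activity change, negative = inhibition: plate controls were basal doxycycline-induced cells for no effect and cells given 10 µM MG132 for full effect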
# Details: ABC-DLBCL IkBa-CBG/CBR reporter, luminescence ratio (green luciferase fused to IkBa over red control in TMD8 lymphoma cells), 4 h; activity change, negative = inhibition: at 46.1 µM (top of the series) unless noted
# In short: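 Concentration-response series (up to 46 uM) were applied to TMD8 dual-reporter cells for 4 h at 37C with doxycycline. Green/red ratio, after filter-overlap correction, defined %Activity; red signal alone was normalised to basal cells and zero luminescence.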
# Potency is read from the fitted curve at half-maximal effect.
SMILES,Potency,"activity change, negative = inhibition"
COc1ccc(OC)c(N=c2oc3cc(O)ccc3cc2C(N)=O)c1,"inconclusive: 5.01 µM [rising, full curve, poor fit]",–
CCc1nnc(SCC(=O)Nc2ccc(NC(C)=O)cc2)n1-n1cccc1,–,inconclusive: 3.06%
COc1ccc(N2C(=O)C(CC(=O)Nc3ccccc3)N(Cc3ccccn3)C2=S)cc1 (stereo not given),"inconclusive: 3.55 µM [falling, partial curve, poor fit]",–
CN(CC(=O)Nc1ccc(F)cc1)C(=O)CN1C(=O)NC2(CCCc3ccccc32)C1=O (stereo not given),–,inactive
Cc1ccc(S(=O)(=O)N(Cc2ccc(Cl)cc2)c2ccccc2C(=O)NCc2ccco2)cc1,"inconclusive: 29.1 µM [rising, single point]",–
Clc1ccc(C2=NCCn3nc4ccccc4c32)cc1,–,inconclusive: -8.49%
CCOc1ccc(Sc2cc(C(=O)NCc3ccccc3Cl)c3ccccc3n2)cc1,–,inactive
CCCCNC(=O)/C=C1\Sc2ccccc2NC1=O,"inconclusive: 16.4 µM [falling, single point]",–
Cc1[nH]nc2oc(=O)c(CCO)c(C)c12,–,inconclusive: -11.3%
COc1ccccc1NS(=O)(=O)c1cccc(C(=O)N2CCN(Cc3ccc4c(c3)OCO4)CC2)c1,–,inactive
CC(C)Oc1cccc(C(=O)C2CCCN(Cc3cccn3-c3ccccn3)C2)c1 (stereo not given),"inconclusive: 25.1 µM [falling, single point]",–
CCNc1nc2c(c(=O)n(C)c(=O)n2C)n1CCCc1ccccc1,–,inactive
CC(C)(C)OC(=O)N1CCCC(C(=O)Nc2ccc(C(=O)N3CCCC3)cc2)C1 (stereo not given),–,inconclusive: 2.04%
O=C(c1ccc(-c2ccc([N+](=O)[O-])cc2)o1)N1CCCCCCC1,–,inconclusive: 7.07%
O=C(CCCN1C(=O)/C(=C/c2ccccc2Cl)SC1=S)NNC(=O)c1ccccc1,"inconclusive: 25.9 µM [rising, single point]",–
CCN(CC)c1ccc(/C=N/NC(=O)Cc2cccs2)cc1,"inconclusive: 16.4 µM [falling, single point]",–
COC(=O)c1ccc(NC(=O)CN(C2CCCCC2)S(C)(=O)=O)cc1,–,inactive
Cc1ccc(S(=O)(=O)N2CCOCC2)cc1C(=O)NC(=S)N1CC(C)OC(C)C1 (stereo not given),–,inactive
Cc1ccc(O)c(C2=NCCNC(C(F)(F)F)=C2)c1,–,inactive
CCOc1ccc(C(=O)N/N=C(/C)C2C(=O)c3ccccc3C2=O)cc1,"inconclusive: 18.4 µM [cytotoxic, partial curve]",–
COc1ccccc1-n1ccn(CC(=O)Nc2ccc(C)cc2Cl)c(=O)c1=O,–,inconclusive: -3.5%
COc1cc(C2C3=C(CCCC3=O)OC3=C2C(=O)CCC3)ccc1OCC(=O)Nc1ccccc1,–,inconclusive: 0.596%
CCOc1ccc(NC(=O)CN(C)C(=O)C2CCN(c3ncnc4sc(C)c(C)c34)CC2)cc1OCC,–,inconclusive: -9.32%
CC(=O)c1cc(-c2ccccc2)n(CCC(=O)Nc2cc(C)cc(C)c2)c1C,–,inactive
O=C(NCCCc1ccccc1)C(=O)c1c[nH]c2ccccc12,–,inconclusive: -9.54%
C=CCOn1c(=O)c(-c2ccc(F)cc2)[n+]([O-])c2ccccc21,–,inactive
CCCCNC(=O)COC(=O)c1c2c(nc3ccccc13)/C(=C/c1cccs1)CC2,–,inconclusive: 11.1%

SMILES,Potency,"activity change, negative = inhibition"
CC(=O)Nc1ccc(S(=O)(=O)Nc2nc3ccccc3nc2Nc2cccc(S(N)(=O)=O)c2)cc1,–,inconclusive: 26.4%
CC(=O)N(C)C1=C(N2CCOCC2)C(=O)c2ccccc2C1=O,–,inconclusive: 9.53%
O=C(CN(Cc1ccc2c(c1)OCO2)C(=O)CNC(=O)c1ccco1)NC1CCCCC1,–,inconclusive: 8.4%
O=C(O)c1cccc(Cn2c(Cl)c(/C=N/NC(=O)c3ccccc3Cl)sc2=O)c1,"inconclusive: 3.98 µM [falling, partial curve]",–
CCCc1cc(=O)[nH]c(SCC(=O)Nc2ccc(S(=O)(=O)N3CCCC3)cc2)n1,–,inconclusive: -0.108%
O=C(N/N=C/c1ccccc1OCc1ccccc1Cl)c1cccnc1,"inconclusive: 20 µM [falling, single point]",–
COc1ccc(C(=O)Nc2cccc3c2CCCC3)cc1,–,inactive
O=[N+]([O-])c1ccc(C(O)CN2CCN(Cc3ccccc3)CC2)cc1 (stereo not given),–,inactive
Cc1csc2c(=O)sc(NC(=O)c3cccs3)nc12,–,inactive
CSc1ccccc1NC(=O)CN(C)Cc1c(O)ccc2ccccc12,–,inactive
Cc1sc2ncn(/N=C/c3ccco3)c(=O)c2c1C,–,inactive
Cc1c(Cl)cnc(NC(=O)CSc2nnc(C)n2Cc2ccccc2)c1Cl,–,inconclusive: 0.475%
COc1ccccc1OCC(=O)Nc1ccc(N2CCOCC2)cc1N1CCOCC1,–,inconclusive: -0.567%
Cc1ccccc1C(=O)Nc1cccc(C(=O)N/N=C/c2ccccn2)c1,–,inconclusive: -4.26%
COc1ccc(Cl)cc1NC(=S)N(CCCN1CCOCC1)Cc1cn(C)c2ccccc12,–,inconclusive: 0.709%
Cc1ccc(NC(=O)CCn2cccc2)cc1,–,inconclusive: -12.3%
O=C(NC(=S)N1CCCc2ccccc21)c1ccc(Br)cc1,"inconclusive: 23.1 µM [falling, single point]",–
Cc1ccc(-c2nc(C(Cl)Cl)c3ccccc3n2)cc1,–,inconclusive: -8%
COc1ccc(C(=O)NC(=S)N2CCCCC2)cc1[N+](=O)[O-],–,inactive
COc1ccc(/C=N/NC(=O)c2ccc(COc3ccccc3Cl)o2)cc1,"inconclusive: 0.562 µM [falling, full curve, poor fit]",–
N/C(=N\OC(=O)c1cc(Cl)ccc1Cl)c1ccncc1,–,inconclusive: -5.46%
Cc1ccc(NC2CCCN(C(=O)C3CCCCC3)C2)cc1C (stereo not given),–,inconclusive: -1.44%
O=C(CSc1nnc(Cn2nnc(-c3ccccc3)n2)n1-c1ccccc1)Nc1ccccc1,–,inconclusive: -1.48%
Cn1c(=O)[nH]c(=O)c2c1nc1n2CC(O)CN1c1ccccc1 (stereo not given),–,inactive
CCCCC#Cc1ccc(C(=O)NNC(=O)Nc2ccccc2)o1,"inconclusive: 22.4 µM [falling, single point]",–
COc1ccccc1/C=C1\Cc2ccccc2C1=O,"inconclusive: 12.6 µM [falling, partial curve, poor fit]",–
CC(C)(C)N(NC(=O)Nc1ccc(Cl)c(Cl)c1)C(=O)c1ccccc1,–,inconclusive: 5.81%

# Seven compounds out of the list, arranged by SMILES length, low to high:
SMILES,Potency,"activity change, negative = inhibition"
Cc1ccc(NC(=O)CCn2cccc2)cc1,–,inconclusive: -12.3%
Cc1csc2c(=O)sc(NC(=O)c3cccs3)nc12,–,inactive
Cc1ccc(-c2nc(C(Cl)Cl)c3ccccc3n2)cc1,–,inconclusive: -8%
CCCCC#Cc1ccc(C(=O)NNC(=O)Nc2ccccc2)o1,"inconclusive: 22.4 µM [falling, single point]",–
O=C(N/N=C/c1ccccc1OCc1ccccc1Cl)c1cccnc1,"inconclusive: 20 µM [falling, single point]",–
COc1ccc(Cl)cc1NC(=S)N(CCCN1CCOCC1)Cc1cn(C)c2ccccc12,–,inconclusive: 0.709%
O=C(CSc1nnc(Cn2nnc(-c3ccccc3)n2)n1-c1ccccc1)Nc1ccccc1,–,inconclusive: -1.48%

# Following part:

SMILES,Potency,"activity change, negative = inhibition"
CCN1CCN(c2nnc(-c3ccccc3)c3ccccc23)CC1,–,inactive
Cc1ccc(NC(=O)CSc2nnc(-c3ccc(S(=O)(=O)N4CCCC4)cc3)o2)cc1C,–,inconclusive: -2.11%
O=c1nc2c(-c3cccc(Br)c3)n[nH]n2c2ccccc12,–,inconclusive: 221%
Cc1cccc2[nH]c3c(N4CCC5(CC4)OCCO5)ncnc3c12,–,inconclusive: -1.36%
CC(=O)c1ccc(NC(=S)NCCc2ccc(S(N)(=O)=O)cc2)cc1,–,inactive
O=C(N/N=C/c1ccccc1O)c1ccncc1,"inconclusive: 13 µM [falling, partial curve, poor fit]",–
O=C(c1cc2c(=O)oc3ccccc3c2s1)N1CCOCC1,"inconclusive: 6.51 µM [falling, single point]",–
COc1ccc(C2CC(c3ccccc3)=NN2C(=O)CSc2ncn[nH]2)cc1 (stereo not given),–,inconclusive: 2.51%
COc1ccc(-n2nc(C(=O)N3CCN(Cc4ccc5c(c4)OCO5)CC3)c3ccccc3c2=O)cc1,–,inconclusive: 0.052%
CC(C)(C)c1cc(C(=O)NNC(=O)Nc2ccccc2)n(Cc2ccccc2)n1,–,inconclusive: -15.6%
C=CCN1C(=O)c2ccc(C(=O)N3CCC(C(=O)OCC)CC3)cc2C1=O,–,inconclusive: -1.1%
COc1ccc(NC(=O)c2sccc2SCc2cccc(C(F)(F)F)c2)cc1,–,inconclusive: -3.78%
COc1cccc(/C=C2\SC(=O)N(CCC(=O)NC3CCS(=O)(=O)C3)C2=O)c1 (stereo not given),"inconclusive: 35.5 µM [rising, single point]",–
Cn1c(=O)n(C)c2cc(S(=O)(=O)N3CCCc4ccccc43)ccc21,–,inconclusive: 9.08%
N#Cc1ccc(CSc2ccc(S(=O)(=O)N3CCCC3)cn2)cc1,–,inactive
O=C(O)c1sccc1SCc1ccc(Cl)c(Cl)c1,"inconclusive: 31.6 µM [falling, single point]",–
C=CCN1C(=O)/C(=C/c2ccccc2)S/C1=N/c1nccs1,–,inconclusive: 4.91%
O=C(OC(c1ccc(NS(=O)(=O)c2ccccc2)cc1)(C(F)(F)F)C(F)(F)F)c1ccccc1,–,inconclusive: -7.71%
CC1=CC(C)(C)N(S(=O)(=O)c2ccc(C)cc2)c2ccc(C)cc21,"inconclusive: 5.17 µM [falling, full curve, poor fit]",–
Cc1cc(C)c2oc(-c3ccc(Cl)c(NC(=O)c4ccc(C#N)cc4F)c3)nc2c1,–,inconclusive: 2.64%
CCOc1cnc(-c2ccc(OC)cc2)o1,–,inactive
O=C(CN1CCCCCCC1)N/N=C/c1ccc(F)cc1F,–,inconclusive: 2.13%
O=C(O)c1cc(-n2[nH]c(=O)c3ccccc3c2=O)ccc1Cl,"inconclusive: 25.1 µM [falling, partial curve]",–
O=C1c2ccccc2NC(c2ccccc2)N1/N=C/c1ccccc1 (stereo not given),"inconclusive: 35.5 µM [rising, partial curve]",–
COC(=O)c1c(NC(NC(=O)C(C)C)C(Cl)(Cl)Cl)sc2c1CCCC2 (stereo not given),"inconclusive: 11.6 µM [rising, partial curve, poor fit]",–
CC(=O)Nc1ccc(OCC(=O)N2CCC(Cc3ccccc3)CC2)cc1,–,inactive
